Results deposited as PubChem BioAssay AID504764 (Drosophila RNAi Screening Center, 2011)

Test: 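Knock-downs that raise or lower a Notch target reporter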 (primary screen)
Cell system: Drosophila Kc167 cells
Reagents: long dsRNA against Drosophila genes
Timing: about 5 days (4 days dsRNA, then 24 h after transfection)
Treatment: transfection of constitutively active membrane-tethered Notch lacking the extracellular domain, read 24 h later
Read-out: 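Light from a Notch-responsive E(spl)m3 luciferase reporter under active Notch, with control-promoter and no-Notch reporter wells to normalise; raw counts from paired wells a and b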
Scale: induced reporter light, run 1, well a and induced reporter light, run 1, well b: higher = more light from the Notch target reporter with active Notch; control promoter light, run 1, well a and control promoter light, run 1, well b: higher = more light from the viral control promoter (cell number, transfection, viability); uninduced reporter light, run 1, well a: higher = more light from the Notch target reporter without active Notch
Call rule: 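Hit if the duplicate-averaged log2 ratio of induced to control-promoter light gives a plate-wise z beyond ±2, or induced to uninduced beyond ±1.8; weak-control or discordant-duplicate wells dropped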
Calls: active = modifier hit (raised or lowered Notch signal); inactive = not a hit
The deposit covers about 22,000 reagents; this is an unselected part of those with a known target gene and a result. Over the whole deposit, 403 (1.9%) were called active. 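Unnormalised raw counts per well; ratio z-scores behind the hit calls and whether each hit raises or lowers signal are not deposited.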 The numbers tell different reagents against one gene apart. The record does not give: the amount of reagent.

psidin (phagocyte signaling impaired) scored induced reporter light, run 1, well a = 1.38e5; induced reporter light, run 1, well b = 1.17e5; control promoter light, run 1, well a = 1.63e5; control promoter light, run 1, well b = 1.49e5; uninduced reporter light, run 1, well a = 8415; inactive. Against CG17239 the deposit lists induced reporter light, run 1, well a = 85775; induced reporter light, run 1, well b = 1.27e5; control promoter light, run 1, well a = 95320; control promoter light, run 1, well b = 49395; uninduced reporter light, run 1, well a = 8005; inactive. CG4404 gave induced reporter light, run 1, well a = 1.55e5; induced reporter light, run 1, well b = 1.10e5; control promoter light, run 1, well a = 2.24e5; control promoter light, run 1, well b = 2.21e5; uninduced reporter light, run 1, well a = 11100; inactive. Depletion of CG6138 gave: induced reporter light, run 1, well a = 1.65e5; induced reporter light, run 1, well b = 2.04e5; control promoter light, run 1, well a = 93640; control promoter light, run 1, well b = 1.14e5; uninduced reporter light, run 1, well a = 21182; inactive. With knock-down of Gbs-76A (Glycogen binding subunit 76A), the record shows induced reporter light, run 1, well a = 1.31e5; induced reporter light, run 1, well b = 1.29e5; control promoter light, run 1, well a = 59600; control promoter light, run 1, well b = 83055; uninduced reporter light, run 1, well a = 7665; inactive. Depletion of CG11345 came out at: induced reporter light, run 1, well a = 2.67e5; induced reporter light, run 1, well b = 2.31e5; control promoter light, run 1, well a = 2.52e5; control promoter light, run 1, well b = 2.43e5; uninduced reporter light, run 1, well a = 17645; inactive.

Depletion of CG13114 gave: induced reporter light, run 1, well a = 1.14e5; induced reporter light, run 1, well b = 1.42e5; control promoter light, run 1, well a = 74830; control promoter light, run 1, well b = 92235; uninduced reporter light, run 1, well a = 15305; inactive. Knock-down of PSMG1 (Proteasome assembly chaperone 1) gave: induced reporter light, run 1, well a = 1.34e5; induced reporter light, run 1, well b = 1.41e5; control promoter light, run 1, well a = 88580; control promoter light, run 1, well b = 83530; uninduced reporter light, run 1, well a = 10825; inactive. With knock-down of Sdb (SAXO downstream of blistered) #1, the record shows induced reporter light, run 1, well a = 1.02e5; induced reporter light, run 1, well b = 92620; control promoter light, run 1, well a = 1.27e5; control promoter light, run 1, well b = 97370; uninduced reporter light, run 1, well a = 7680; inactive. Depletion of Sdb (SAXO downstream of blistered) #2 came out at: induced reporter light, run 1, well a = 1.04e5; induced reporter light, run 1, well b = 1.15e5; control promoter light, run 1, well a = 1.27e5; control promoter light, run 1, well b = 1.67e5; uninduced reporter light, run 1, well a = 9275; inactive. Depletion of Sdb (SAXO downstream of blistered) #3 resulted in: induced reporter light, run 1, well a = 1.56e5; induced reporter light, run 1, well b = 1.38e5; control promoter light, run 1, well a = 1.31e5; control promoter light, run 1, well b = 1.43e5; uninduced reporter light, run 1, well a = 14565; inactive.

Targets above whose target name starts with S or s (3):
Sdb (SAXO downstream of blistered) #1 — induced reporter light, run 1, well a: 1.02e5; induced reporter light, run 1, well b: 92620; control promoter light, run 1, well a: 1.27e5; control promoter light, run 1, well b: 97370; uninduced reporter light, run 1, well a: 7680; Call: inactive
Sdb (SAXO downstream of blistered) #2 — induced reporter light, run 1, well a: 1.04e5; induced reporter light, run 1, well b: 1.15e5; control promoter light, run 1, well a: 1.27e5; control promoter light, run 1, well b: 1.67e5; uninduced reporter light, run 1, well a: 9275; Call: inactive
Sdb (SAXO downstream of blistered) #3 — induced reporter light, run 1, well a: 1.56e5; induced reporter light, run 1, well b: 1.38e5; control promoter light, run 1, well a: 1.31e5; control promoter light, run 1, well b: 1.43e5; uninduced reporter light, run 1, well a: 14565; Call: inactive

The listing continues:
After knock-down of Npc2g (Niemann-Pick type C-2g) the results were induced reporter light, run 1, well a = 1.15e5; induced reporter light, run 1, well b = 1.12e5; control promoter light, run 1, well a = 1.77e5; control promoter light, run 1, well b = 1.81e5; uninduced reporter light, run 1, well a = 11050; inactive. For CG12116 the deposit lists induced reporter light, run 1, well a = 89465; induced reporter light, run 1, well b = 1.06e5; control promoter light, run 1, well a = 1.46e5; control promoter light, run 1, well b = 1.25e5; uninduced reporter light, run 1, well a = 6595; inactive. After knock-down of Aps (Aps pyrophosphatase), the record shows induced reporter light, run 1, well a = 2.05e5; induced reporter light, run 1, well b = 1.78e5; control promoter light, run 1, well a = 2.58e5; control promoter light, run 1, well b = 2.20e5; uninduced reporter light, run 1, well a = 8735; inactive. Knock-down of CG42233 #1 gave: induced reporter light, run 1, well a = 1.39e5; induced reporter light, run 1, well b = 1.14e5; control promoter light, run 1, well a = 2.63e5; control promoter light, run 1, well b = 2.13e5; uninduced reporter light, run 1, well a = 10090; inactive. Knock-down of CG42233 #2 resulted in: induced reporter light, run 1, well a = 1.02e5; induced reporter light, run 1, well b = 1.09e5; control promoter light, run 1, well a = 2.14e5; control promoter light, run 1, well b = 2.19e5; uninduced reporter light, run 1, well a = 7625; inactive. For Or13a (Odorant receptor 13a), the entry reads induced reporter light, run 1, well a = 72180; induced reporter light, run 1, well b = 67185; control promoter light, run 1, well a = 93490; control promoter light, run 1, well b = 65230; uninduced reporter light, run 1, well a = 11250; inactive.

Against CG5762, the entry reads induced reporter light, run 1, well a = 1.34e5; induced reporter light, run 1, well b = 1.21e5; control promoter light, run 1, well a = 1.27e5; control promoter light, run 1, well b = 1.29e5; uninduced reporter light, run 1, well a = 13155; inactive.
